According to PubChem BioAssay AID2270 (NMMLSC, 2010):
The list shows a part of the results.

Assay: RPL19A-GFP modulators, yeast TOR pathway, confirmation, cell-based, S. cerevisiae, flow cytometry, cherry picks, mother/daughter gates (AID 2270)
Conditions: S. cerevisiae RPL19A-GFP strain, 3 h, at 10 µM, stronger effect = lower value, 100 = same GFP as DMSO wells
[1] = measured here: daughter cell gate
[2] = measured here: mother cell gate

SMILES	GFP response vs DMSO [1]	GFP response vs DMSO [2]
C[N+]1=C2C=CC=CC=C2SC12C([N+](=O)[O-])=CC([N+](=O)[O-])=C[C-]2[N+](=O)[O-] (stereo unspecified)	102%	95.2%
CCOP(=O)(Nc1cccc2ccccc12)OCC	97.9%	98.8%
O=P(Nc1nccs1)(c1ccccc1)c1nc2ccccc2s1 (stereo unspecified)	98%	99.2%
